The target of the assay is His6-FcrX (S. meliloti) (UniProt Q92JY7). Description: pull-down.

These are yes or no findings as the source states them, for the method shown. In cells and extracts the contact can be indirect. A result given as binding can be weak or reduced; the word gives no strength.

Turning to CtrA (from UniProt Q7APB9), the binding entry was “binds”.

Values taken from article doi:10.1101/2023.03.13.532326.
